Legend:
purified protein [1] = substrate: Nc1ncnc2c1ncn2[C@@H]1O[C@H](COP(=O)(O)OP(=O)(O)OP(=O)(O)O)[C@@H](O)[C@H]1O; assay: purified protein; conditions: pH 7.0 potassium phosphate, 40 °C, MgCl2, hydroxycinnamic acid co-substrate not stated
purified protein [2] = substrate: O=C(O)/C=C/c1ccc(O)c(O)c1; assay: purified protein; conditions: pH 7.0 potassium phosphate, 40 °C, standard assay 2.5 mM ATP, 2.5 mM MgCl2, 500 µM CoA, no DTT

B1: Aa4CL_2 (Anthoceros agrestis) (protein)
chain: MPAEMEAGEHIFRSNLPDIDIPFTLNLAHYSLQNAHQYGDKPCLIDGPTGKTYSYSEVEVVSRRVAAGLVALGVGKGEIVCLLLPNTCEFALIFLGVALRGAVVTTANPFYTAGELANQIKAAGAKIIVTQSAWAGKVAGLGAKVLTTDAPPEGCESAGLLLEADESKFTPVDVDPESVVCLPYSSGTTGLPKGVMLTHKSLISSVAQQVDGDCPHLHLTTDDVMLCLLPMFHIYSLNSVMLCGLRAGAALLIMQKFEIESLLRLVEKYKITVAPVVPPIVLAISKSPIVEKYDLSSITRVMSGAAPLGKELEDALRLKLPQATVGQGYGMTEAGPVLAMSLAFSKEPKQMKSGSVGMVMRNAELKVVDPESGVSLPVGEAGEICIRGPQIMKGYFNNPEATANTIDKHGWLHTGDIGVVDSDGEIFIVDRVKEIIKFKGFQVPPAELEALLLAHPDVSDAAVVPKKDEAAGEVPVAFVVRKEGSEVTEQALKEYVAKEVVFYKKIHHVQFIDVVPKSASGKILRKELRSRV
notes: N-terminal 6xHis tag (pRSET C) kept, E. coli SoluBL21, Ni-NTA purified
Q: What does the source list for B1?
A: Km (purified protein [1]): 151.1 ± 25.3 µM; Vmax (purified protein [1]): 1.87 µmol/min/mg; kcat (purified protein [1]): 1.9 s⁻¹; kcat/Km (purified protein [1]): 12700 M⁻¹ s⁻¹; Km (purified protein [2]): 20.5 ± 4.6 µM; Vmax (purified protein [2]): 1.94 µmol/min/mg; kcat (purified protein [2]): 2 s⁻¹; kcat/Km (purified protein [2]): 97400 M⁻¹ s⁻¹
